Data: publication PMC4395201

B1: Hemojuvelin, wild type (protein, UniProt Q6ZVN8 36-400)
chain: QCKILRCNAEYVSSTLSLRGGGSSGALRGGGGGGRGGGVGSGGLCRALRSYALCTRRTARTCRGDLAFHSAVHGIEDLMIQHNCSRQGPTAPPPPRGPALPGAGSGLPAPDPCDYEGRFSRLHGRPPGFLHCASFGDPHVRSFHHHFHTCRVQGAWPLLDNDFLFVQATSSPMALGANATATRKLTIIFKNMQECIDQKVYQAEVDNLPVAFEDGSINGGDRPGGSSLSIQTANPGNHVEIQAAYIGTTIIIRQTAGQLSFSIKVAEDVAMAFSAEQDLQLCVGGCPPSQRLSRSERNRRGAITIDTARRLCKEGLPVEDAYFHSCVFDVLISGDPNFTVAAQAALEDARAFLPDLEKLHLFPSD
B2: Hemojuvelin R218A (protein, UniProt Q6ZVN8 36-400)
chain: B1 chain with R183A
B3: Hemojuvelin R288A (protein, UniProt Q6ZVN8 36-400)
chain: B1 chain with R253A
B4: Hemojuvelin R326A (protein, UniProt Q6ZVN8 36-400)
chain: B1 chain with R291A
B5: Hemojuvelin R121A (protein, UniProt Q6ZVN8 36-400)
chain: B1 chain with R86A
B6: Hemojuvelin R176A (protein, UniProt Q6ZVN8 36-400)
chain: B1 chain with R141A
B7: Hemojuvelin R257A (protein, UniProt Q6ZVN8 36-400)
chain: B1 chain with R222A

The binders below were run against TMPRSS6^MASK, lacking the serine protease domain (assay: co-IP; HeLa cells cotransfected with wild-type or mutant HJV and TMPRSS6^MASK (ratio 1:1); lysed after 36 hrs in NET/Triton buffer; 500 ug of total lysate on anti-FLAG M2 agarose, 2 hrs at 4°C, three washes; blots with anti-HJV and anti-FLAG).

Row | binding | Binder
1 | binds | B1
2 | binds | B2
3 | binds | B3
4 | binds | B4
5 | binds | B5
6 | binds | B6
7 | binds | B7

Substitutions are numbered along the chain they refer to. Numbers in names are those of the source. Results are given in words; binding and its absence hold for the method and conditions named. Binding seen in cells or lysates may run through a third protein. A result given as binding can be weak or reduced; the word gives no strength.
